Reference: PubChem BioAssay AID493014 (National Center for Advancing Translational Sciences (NCATS), 2011)
The whole screen tested about 340,000 compounds, of which about 170 (0.05%) were called active. The shares of active, inactive and inconclusive entries below differ from those in the screen. The call rests on the fitted dose curve; in most records, active means well fitted inhibition curve with a large enough effect in the signal ratio, with a control signal flat (not every such curve was filed as active); inconclusive means small, poorly fitted or top-dose-only effect, or effect the other way, or a change in a side signal; inactive means flat fitted curve, though single readings scatter; the % refers to the signal ratio. Where the call is inconclusive, the potency comes from a doubtful curve fit.

Assay: qHTS Assay to Find Inhibitors of Chronic Active B-Cell Receptor Signaling;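 on activity change, negative = inhibition: plate controls were basal doxycycline-induced cells for no effect and cells given 10 µM MG132 for full effect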
Conditions: ABC-DLBCL IkBa-CBG/CBR reporter, luminescence ratio (green luciferase fused to IkBa over red control in TMD8 lymphoma cells), 4 h; activity change, negative = inhibition: at 46.1 µM (top of the series)
Summary of the method: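 TMD8 ABC-DLBCL cells carrying doxycycline-inducible green luciferase fused to IkappaBalpha plus unfused red luciferase were exposed to compounds (up to 46 uM) for 4 hrs at 37C. Activity came from the overlap-corrected green/red luminescence ratio.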
Potency means the concentration at half of the fitted maximal effect.

| Structure (SMILES) | activity change, negative = inhibition | Potency |
| --- | --- | --- |
| N#C/C(=C\c1cccc([N+](=O)[O-])c1)C(=O)NCc1ccc(Cl)cc1 | inconclusive: -2.62% | – |
| C[C@@H](C(=O)NCc1ccccn1)[C@H]1C[C@]1(C)[C@H](NC(=O)OCc1ccccc1)c1ccccc1 | inconclusive: -13.9% | – |
| COC(=O)C(C)n1nnc2sc(-c3ccccc3)cc2c1=O (stereo not given) | – | inconclusive: 15.8 µM [falling, partial curve, poor fit] |
| COCC1CCN(Cc2c(C(=O)N3CCN(C4CCCCC4)CC3)nc3ccccn23)C1 (stereo not given) | inconclusive: -0.466% | – |
| CCCN(CCC)S(=O)(=O)c1ccc(C(=O)Nc2nnc(COC)o2)cc1 | inactive: 5.92% | – |
| CCN(CC(=O)NCc1ccc(Cl)cc1)C(=O)c1cc(S(=O)(=O)NCc2ccccc2)ccc1C | inactive: -3.46% | – |
| Cc1ccccc1OCCC(=O)OCC(=O)NCCNC(=O)COC(=O)CCOc1ccccc1C | inactive: -10.6% | – |
| CCOC(=O)c1c(NC(=O)C2COc3ccccc3O2)sc2c1CC(C)(C)NC2(C)C (stereo not given) | inconclusive: 18.4% | – |
| CC(C)C1OC2c3cccc4cccc(c34)C2N1c1ccccc1 (stereo not given) | inactive: -26.7% | – |
| CCOC(=O)C1=C(C)OC2(O)c3ccccc3C(=O)C12O (stereo not given) | inconclusive: 11.2% | – |
| COc1ccc2c3c([nH]c2c1)C(C)N(C(C)=O)CC3 (stereo not given) | – | inconclusive: 10 µM [falling, partial curve, poor fit] |
| CCOc1ccc(NC(=O)/C=C\C(=O)N(c2ccc(C(C)C)cc2)C(C(=O)NCc2ccco2)c2ccc(F)cc2)cc1 (stereo not given) | inconclusive: -1.61% | – |
| COc1ccc(-c2cnn3c(C)cc(C)nc23)cc1OC | inconclusive: -102% | – |
| CC(Oc1cccc(Br)c1)C(=O)NNC(=O)c1ccccn1 (stereo not given) | inconclusive: -3.36% | – |
| CC(C)c1ccc(OCC(=O)NNC(=S)NC(=O)c2cccs2)c(Br)c1 | inactive: -0.412% | – |
| CCN1CCN(c2ccc(Nc3ccnc4ccccc34)cc2)CC1 | – | inconclusive: 23.1 µM [falling, partial curve, poor fit] |
| Cc1cc(C)c(OCC(=O)Nc2ccc(S(=O)(=O)N3CCOCC3)cc2)c(C)c1 | – | inconclusive: 10 µM [falling, partial curve] |
| Cc1nn(-c2ccccc2)c(N)c1C(O)(CSc1nccn1C)C(F)(F)F (stereo not given) | – | inconclusive: 0.92 µM [falling, full curve, poor fit] |
| CC(=O)NC12CC3CC(C1)CC(C(=O)Nc1c(C)n(C)n(-c4ccccc4)c1=O)(C3)C2 | inconclusive: 4.23% | – |
| O=[N+]([O-])c1c(Nc2ccccc2O)ccc2nonc12 | inactive: -24% | – |

| Structure (SMILES) | activity change, negative = inhibition | Potency |
| --- | --- | --- |
| C=CCc1c(C)nc(C)nc1N/N=C/c1ccc(F)cc1 | inconclusive: 3.49% | – |
| COc1cccc(OC)c1C(=O)NCCSC1CCCCC1 | inactive: 3.49% | – |
| COc1ccccc1NC1=C(C)C(=O)CC1 | inconclusive: -11.1% | – |
| O=C(/C=C/c1ccccc1Cl)c1ccc[nH]1 | – | inconclusive: 16.4 µM [falling, single point] |
| COc1ccc(CNCCC(c2ccccc2)c2ccc3c(c2)OCO3)cc1 (stereo not given) | inconclusive: 9.76% | – |
| COc1ccc(-c2oc(=O)c3cc(OC)c(OC)cc3c2-c2ccc3c(c2)OCO3)cc1 | inconclusive: -1.79% | – |
| O=S(=O)(c1ccc(Cl)cc1)N1CCCN(c2ccc(C(F)(F)F)cn2)CC1 | inconclusive: 8.74% | – |
| O=C(O)CC/C(=C\c1ccc(N2CCCC2)c([N+](=O)[O-])c1)c1nc2ccccc2s1 | inconclusive: -6.05% | – |
| Cc1cccc(CCNC(=O)CCNC(=O)Cn2ccc3ccccc3c2=O)c1 | inconclusive: -0.406% | – |
| O=C(NC1CCN(C(=S)NCc2ccco2)CC1)NC12CC3CC(CC(C3)C1)C2 | inconclusive: 2.26% | – |
| COc1ccc(CCCc2nnc(SCC(=O)Nc3ccccc3F)o2)cc1 | – | inconclusive: 2.82 µM [falling, full curve, poor fit] |
| CCCc1cc(=O)oc2c(C)c(OC3CCCCC3=O)ccc12 (stereo not given) | inconclusive: 3.94% | – |
| COc1ccc(/C=C2\SC(=S)N(CCC(=O)N3CCOCC3)C2=O)cc1 | – | inconclusive: 25.1 µM [falling, single point] |
| CCOC(=O)N/N=C\c1ccc([N+](=O)[O-])s1 | inactive: 4.6% | – |
| COc1cc(C(=O)OCC(=O)Nc2ccc(S(=O)(=O)N3CCCC3)cc2)cc(OC)c1OC | inactive: -5.53% | – |
| CCCCn1c(NCc2cc(Cl)ccc2O)nc2ccccc21 | inconclusive: 15.7% | – |
| CCOC(=O)C(C(=O)OCC)C(Nc1ccccc1)c1ccccc1 (stereo not given) | inconclusive: -14.9% | – |
| CN1CCN(Cn2cc(/C=C/C(=O)c3ccccc3)c3ccccc32)CC1 | – | inconclusive: 3.66 µM [falling, partial curve] |
| COc1cc([N+](=O)[O-])cc2sc(NC(=O)C3CC3)nc12 | inconclusive: 7.08% | – |
| Cn1c2ccccc2c2nnc(SCC(=O)Nc3cccc(O)c3)nc21 | inconclusive: -14.8% | – |
